Measured values published in patent US20240132621A1.
Results are given in words; binding and its absence hold for the method and conditions named. Some results given as binding are weak or reduced against the parent protein; the word gives no strength.

The chains behind the UniProt entries cited, without tags or fusion partners. Residues count along the entry.
UniProt P36222, residues 22-383: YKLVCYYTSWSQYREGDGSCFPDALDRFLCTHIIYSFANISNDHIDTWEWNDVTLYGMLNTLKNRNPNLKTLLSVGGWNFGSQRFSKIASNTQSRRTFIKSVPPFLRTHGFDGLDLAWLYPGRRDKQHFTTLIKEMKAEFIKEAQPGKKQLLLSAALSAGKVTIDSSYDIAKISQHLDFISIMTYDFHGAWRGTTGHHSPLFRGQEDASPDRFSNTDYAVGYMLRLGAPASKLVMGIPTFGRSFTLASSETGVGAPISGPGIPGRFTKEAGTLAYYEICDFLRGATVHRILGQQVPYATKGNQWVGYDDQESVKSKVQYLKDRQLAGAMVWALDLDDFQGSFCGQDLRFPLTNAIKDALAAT

Target: chitinase-3-like protein-1 (YKL-40) on human ovarian cancer cell CA5171 (human) (UniProt P36222)
Assay: flow cytometry on human ovarian cancer cell CA5171

binding: binds
B1: YKL-40 neutralizing antibody (antibody, V domains shown)
VH: QIQLVQSGPELKKPGETVRISCKASGYTFPNYGMNWVKQAPGKGLKWMGWINTYTGEPTYTVDFKGQFAFSLETSASTAYLQINNLKNEDTATYFCARSFYGTNGFDYWGQGTTLTVSS
VL: NIVMTQSPKSMSMSVGERVTLSCKASENVGTYVSWYQQKPEQSPKLVIYGASNRYIGVPDRFTGSGSATDFTLTISSVEAEDLADYHCGQSYSYPPTFGGGTKLEIK
